This is one part of the list.
Key:
Test in all cases: log2 fold change, soluble protein after heating vs DMSO (PISA); higher = thermal stabilisation; K562 cells, 10 uM, 30 min; active = over 0.2 and 3.5 SD of the protein, either way, in both replicates (recomputed)
saracatinib = compound: CN1CCN(CCOc2cc(OC3CCOCC3)c3c(Nc4c(Cl)ccc5c4OCO5)ncnc3c2)CC1 [saracatinib]
Procedure, shortened: (§1)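 For each measurement, 10 μM compound was applied for 30 min to K562 cells at 2×10^6 cells/mL. Aliquots were heated for 3 min across 48°C-58°C, pooled, and extracted in PBS with 0.5% NP-40 at 4°C; the supernatant after 21,000xg for 90 min was soluble protein. This was quantified by TMTpro 16plex LC-MS/MS with channel sums equalised, and thermal stability was reported relative to control samples from duplicates, on a log2 fold-change scale.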

The chains behind the UniProt entries cited, without tags or fusion partners. Where a name states a change or a piece, a line headed by the entry shows the natural chain unless it says otherwise.
UniProt Q16384, whole entry, looked up: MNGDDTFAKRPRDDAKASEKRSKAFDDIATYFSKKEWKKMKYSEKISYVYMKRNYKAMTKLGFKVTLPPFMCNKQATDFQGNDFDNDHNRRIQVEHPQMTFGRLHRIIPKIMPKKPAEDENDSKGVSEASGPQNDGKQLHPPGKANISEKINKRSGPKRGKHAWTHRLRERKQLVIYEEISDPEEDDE
UniProt Q9H8P0: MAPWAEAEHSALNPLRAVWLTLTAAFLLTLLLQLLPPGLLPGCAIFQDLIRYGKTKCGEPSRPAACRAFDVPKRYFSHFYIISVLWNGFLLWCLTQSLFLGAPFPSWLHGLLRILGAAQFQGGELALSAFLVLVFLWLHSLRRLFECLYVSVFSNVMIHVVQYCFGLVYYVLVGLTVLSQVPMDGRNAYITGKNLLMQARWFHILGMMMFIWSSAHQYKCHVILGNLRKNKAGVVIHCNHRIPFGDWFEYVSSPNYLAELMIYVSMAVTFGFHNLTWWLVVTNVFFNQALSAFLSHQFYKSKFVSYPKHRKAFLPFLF
UniProt P36956: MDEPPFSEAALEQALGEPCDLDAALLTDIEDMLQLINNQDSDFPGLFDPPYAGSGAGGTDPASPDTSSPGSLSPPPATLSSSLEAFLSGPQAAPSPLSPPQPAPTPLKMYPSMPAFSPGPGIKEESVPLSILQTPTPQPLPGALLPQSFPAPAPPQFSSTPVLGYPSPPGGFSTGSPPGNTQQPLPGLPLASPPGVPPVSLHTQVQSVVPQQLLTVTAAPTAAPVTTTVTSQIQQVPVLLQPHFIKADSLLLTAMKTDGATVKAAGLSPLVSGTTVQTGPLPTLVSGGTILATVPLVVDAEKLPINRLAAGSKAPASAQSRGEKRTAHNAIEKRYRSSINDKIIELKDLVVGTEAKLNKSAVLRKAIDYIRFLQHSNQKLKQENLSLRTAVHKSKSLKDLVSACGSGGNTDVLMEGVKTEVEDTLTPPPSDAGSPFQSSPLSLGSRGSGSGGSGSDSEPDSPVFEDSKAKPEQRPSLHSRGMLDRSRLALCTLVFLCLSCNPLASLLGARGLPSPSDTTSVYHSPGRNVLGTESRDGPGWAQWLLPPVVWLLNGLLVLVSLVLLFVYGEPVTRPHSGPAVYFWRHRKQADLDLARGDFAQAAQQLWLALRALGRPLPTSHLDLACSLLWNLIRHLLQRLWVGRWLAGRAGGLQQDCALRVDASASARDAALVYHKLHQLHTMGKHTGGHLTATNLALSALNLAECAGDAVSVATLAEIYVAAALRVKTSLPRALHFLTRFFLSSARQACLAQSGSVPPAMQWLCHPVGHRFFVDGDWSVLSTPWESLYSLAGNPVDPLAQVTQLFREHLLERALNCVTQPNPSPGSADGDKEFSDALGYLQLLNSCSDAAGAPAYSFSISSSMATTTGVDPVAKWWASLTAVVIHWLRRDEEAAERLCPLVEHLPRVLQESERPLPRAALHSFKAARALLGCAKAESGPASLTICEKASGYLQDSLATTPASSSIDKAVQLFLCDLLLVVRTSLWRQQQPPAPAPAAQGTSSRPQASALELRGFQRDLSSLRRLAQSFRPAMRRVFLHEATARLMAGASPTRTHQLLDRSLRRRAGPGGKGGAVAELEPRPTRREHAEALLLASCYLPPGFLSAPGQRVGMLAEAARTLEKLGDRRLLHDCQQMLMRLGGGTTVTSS
UniProt Q7Z699: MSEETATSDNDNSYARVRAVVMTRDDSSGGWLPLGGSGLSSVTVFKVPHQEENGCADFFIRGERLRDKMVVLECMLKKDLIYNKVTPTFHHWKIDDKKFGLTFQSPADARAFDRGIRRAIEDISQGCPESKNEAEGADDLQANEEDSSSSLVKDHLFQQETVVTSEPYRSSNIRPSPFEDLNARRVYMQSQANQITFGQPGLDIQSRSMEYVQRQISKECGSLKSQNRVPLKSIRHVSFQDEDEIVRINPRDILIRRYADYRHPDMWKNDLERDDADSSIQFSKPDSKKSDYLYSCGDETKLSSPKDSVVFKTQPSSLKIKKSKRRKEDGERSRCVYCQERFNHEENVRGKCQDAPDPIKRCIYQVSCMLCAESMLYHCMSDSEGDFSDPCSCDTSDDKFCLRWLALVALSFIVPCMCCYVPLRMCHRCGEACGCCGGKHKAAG
UniProt O94768: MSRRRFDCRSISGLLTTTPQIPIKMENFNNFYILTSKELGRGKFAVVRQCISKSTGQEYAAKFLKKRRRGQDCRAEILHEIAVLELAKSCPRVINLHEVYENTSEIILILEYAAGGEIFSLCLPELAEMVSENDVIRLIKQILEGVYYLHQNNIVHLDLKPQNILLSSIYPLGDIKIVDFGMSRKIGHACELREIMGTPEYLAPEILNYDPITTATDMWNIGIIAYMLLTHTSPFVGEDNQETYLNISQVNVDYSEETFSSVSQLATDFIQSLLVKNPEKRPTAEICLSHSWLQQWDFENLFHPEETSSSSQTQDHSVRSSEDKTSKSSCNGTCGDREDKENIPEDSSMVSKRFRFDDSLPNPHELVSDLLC
UniProt P61647: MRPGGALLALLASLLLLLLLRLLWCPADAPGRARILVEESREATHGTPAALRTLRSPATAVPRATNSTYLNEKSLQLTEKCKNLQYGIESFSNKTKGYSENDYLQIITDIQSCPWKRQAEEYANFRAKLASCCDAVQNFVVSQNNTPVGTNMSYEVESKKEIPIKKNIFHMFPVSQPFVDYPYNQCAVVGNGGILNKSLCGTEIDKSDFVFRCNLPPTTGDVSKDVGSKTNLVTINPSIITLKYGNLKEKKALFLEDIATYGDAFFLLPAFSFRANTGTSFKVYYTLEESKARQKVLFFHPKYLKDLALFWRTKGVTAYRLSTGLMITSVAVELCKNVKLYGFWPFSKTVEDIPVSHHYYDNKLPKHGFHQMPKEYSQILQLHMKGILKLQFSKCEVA
UniProt Q9Y6E0: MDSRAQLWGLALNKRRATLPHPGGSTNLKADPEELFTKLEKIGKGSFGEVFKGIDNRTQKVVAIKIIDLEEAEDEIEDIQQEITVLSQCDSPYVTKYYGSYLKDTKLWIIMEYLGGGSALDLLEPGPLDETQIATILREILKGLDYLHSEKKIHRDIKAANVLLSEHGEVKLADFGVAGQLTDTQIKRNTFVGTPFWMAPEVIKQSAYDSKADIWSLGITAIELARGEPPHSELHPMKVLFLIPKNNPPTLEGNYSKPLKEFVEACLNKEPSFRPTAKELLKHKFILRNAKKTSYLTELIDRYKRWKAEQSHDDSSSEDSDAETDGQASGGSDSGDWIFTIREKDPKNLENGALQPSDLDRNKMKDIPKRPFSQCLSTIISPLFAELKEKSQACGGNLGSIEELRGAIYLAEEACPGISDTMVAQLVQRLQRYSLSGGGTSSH
UniProt Q8TCT6: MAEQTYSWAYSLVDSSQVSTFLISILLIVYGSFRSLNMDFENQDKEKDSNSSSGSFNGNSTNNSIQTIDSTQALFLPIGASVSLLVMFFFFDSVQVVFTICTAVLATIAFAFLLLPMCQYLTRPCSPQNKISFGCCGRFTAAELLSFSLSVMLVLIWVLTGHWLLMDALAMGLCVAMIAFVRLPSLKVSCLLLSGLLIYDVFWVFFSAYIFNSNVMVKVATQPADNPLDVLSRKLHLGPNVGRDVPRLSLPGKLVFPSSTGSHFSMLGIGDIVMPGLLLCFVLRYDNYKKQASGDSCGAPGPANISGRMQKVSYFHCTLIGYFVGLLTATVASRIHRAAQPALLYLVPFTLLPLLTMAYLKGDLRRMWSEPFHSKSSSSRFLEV
UniProt Q11206: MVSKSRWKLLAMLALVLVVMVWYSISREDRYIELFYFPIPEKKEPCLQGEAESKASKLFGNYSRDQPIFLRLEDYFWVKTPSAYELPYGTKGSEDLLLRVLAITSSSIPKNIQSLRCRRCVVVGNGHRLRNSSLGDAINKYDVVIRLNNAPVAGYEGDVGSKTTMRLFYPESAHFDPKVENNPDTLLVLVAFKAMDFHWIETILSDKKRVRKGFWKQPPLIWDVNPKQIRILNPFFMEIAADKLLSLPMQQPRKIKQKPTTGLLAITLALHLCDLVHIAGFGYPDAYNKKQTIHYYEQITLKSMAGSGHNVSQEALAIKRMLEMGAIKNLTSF
UniProt Q11201: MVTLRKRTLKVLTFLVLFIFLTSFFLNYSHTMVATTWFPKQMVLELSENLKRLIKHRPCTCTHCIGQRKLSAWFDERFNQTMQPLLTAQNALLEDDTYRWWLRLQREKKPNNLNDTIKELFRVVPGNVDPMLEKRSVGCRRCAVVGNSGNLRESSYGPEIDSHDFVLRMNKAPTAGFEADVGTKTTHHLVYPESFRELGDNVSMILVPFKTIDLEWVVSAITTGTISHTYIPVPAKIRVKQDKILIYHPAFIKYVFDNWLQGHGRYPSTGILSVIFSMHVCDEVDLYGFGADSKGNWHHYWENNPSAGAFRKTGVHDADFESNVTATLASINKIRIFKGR
UniProt O43278: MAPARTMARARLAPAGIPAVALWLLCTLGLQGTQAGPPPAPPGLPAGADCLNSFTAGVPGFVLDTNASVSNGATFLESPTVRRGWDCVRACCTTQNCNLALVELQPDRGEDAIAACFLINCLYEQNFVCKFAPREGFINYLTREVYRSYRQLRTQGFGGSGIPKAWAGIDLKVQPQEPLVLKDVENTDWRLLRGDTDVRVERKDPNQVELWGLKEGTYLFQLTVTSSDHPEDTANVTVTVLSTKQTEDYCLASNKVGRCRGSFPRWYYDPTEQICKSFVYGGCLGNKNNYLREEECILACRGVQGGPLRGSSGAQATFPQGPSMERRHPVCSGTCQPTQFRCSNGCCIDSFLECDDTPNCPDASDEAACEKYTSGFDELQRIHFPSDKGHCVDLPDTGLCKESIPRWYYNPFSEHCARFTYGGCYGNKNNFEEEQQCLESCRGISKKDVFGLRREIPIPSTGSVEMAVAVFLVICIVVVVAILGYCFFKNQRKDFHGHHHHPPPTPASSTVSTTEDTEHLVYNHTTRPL
UniProt Q86XZ4: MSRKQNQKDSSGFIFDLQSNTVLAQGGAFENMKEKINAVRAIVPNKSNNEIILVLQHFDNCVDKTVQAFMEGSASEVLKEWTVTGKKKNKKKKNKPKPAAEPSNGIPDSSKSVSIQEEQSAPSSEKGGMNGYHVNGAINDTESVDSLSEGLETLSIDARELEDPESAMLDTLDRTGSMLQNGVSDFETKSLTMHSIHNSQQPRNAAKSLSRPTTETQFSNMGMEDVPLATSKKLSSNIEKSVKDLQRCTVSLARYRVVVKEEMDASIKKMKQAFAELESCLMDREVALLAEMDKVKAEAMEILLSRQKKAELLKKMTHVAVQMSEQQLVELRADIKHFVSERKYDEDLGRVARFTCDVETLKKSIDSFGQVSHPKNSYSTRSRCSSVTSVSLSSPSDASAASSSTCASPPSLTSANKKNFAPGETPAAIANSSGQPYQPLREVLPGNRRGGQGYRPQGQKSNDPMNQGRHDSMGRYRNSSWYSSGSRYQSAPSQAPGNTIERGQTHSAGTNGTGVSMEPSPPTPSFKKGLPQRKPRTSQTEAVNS
UniProt Q56A73: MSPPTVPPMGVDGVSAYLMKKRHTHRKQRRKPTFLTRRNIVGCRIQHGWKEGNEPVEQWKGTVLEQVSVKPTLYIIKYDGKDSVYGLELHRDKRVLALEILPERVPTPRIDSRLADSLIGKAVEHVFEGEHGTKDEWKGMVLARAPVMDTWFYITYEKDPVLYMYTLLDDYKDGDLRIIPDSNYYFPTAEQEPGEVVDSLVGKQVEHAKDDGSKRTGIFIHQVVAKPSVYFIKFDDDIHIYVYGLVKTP
UniProt P22528: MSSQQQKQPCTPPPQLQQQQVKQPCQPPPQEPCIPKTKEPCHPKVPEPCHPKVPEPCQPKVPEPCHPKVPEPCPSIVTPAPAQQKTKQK
UniProt Q9UH36: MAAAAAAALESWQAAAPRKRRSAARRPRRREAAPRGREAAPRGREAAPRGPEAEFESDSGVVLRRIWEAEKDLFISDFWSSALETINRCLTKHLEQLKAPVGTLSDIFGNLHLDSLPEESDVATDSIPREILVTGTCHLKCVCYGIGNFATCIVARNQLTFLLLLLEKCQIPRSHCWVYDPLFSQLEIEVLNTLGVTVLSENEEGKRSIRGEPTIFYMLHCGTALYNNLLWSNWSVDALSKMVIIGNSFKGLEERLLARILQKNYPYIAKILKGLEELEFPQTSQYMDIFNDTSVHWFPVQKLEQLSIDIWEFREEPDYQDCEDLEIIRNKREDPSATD
UniProt Q9Y6N5: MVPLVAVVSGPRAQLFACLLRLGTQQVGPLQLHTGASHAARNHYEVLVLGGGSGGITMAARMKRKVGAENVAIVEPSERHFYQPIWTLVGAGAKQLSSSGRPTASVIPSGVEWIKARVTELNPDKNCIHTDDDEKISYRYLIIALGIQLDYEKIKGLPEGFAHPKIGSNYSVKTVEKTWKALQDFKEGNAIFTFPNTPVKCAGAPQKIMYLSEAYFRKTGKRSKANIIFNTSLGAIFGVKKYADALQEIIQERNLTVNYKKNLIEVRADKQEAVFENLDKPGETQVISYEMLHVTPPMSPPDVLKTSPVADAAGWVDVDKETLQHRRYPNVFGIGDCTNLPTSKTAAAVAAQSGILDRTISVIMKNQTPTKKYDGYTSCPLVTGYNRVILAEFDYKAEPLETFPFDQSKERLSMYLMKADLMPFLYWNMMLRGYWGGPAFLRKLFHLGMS

sotrastaurin = compound: CN1CCN(c2nc(C3=C(c4c[nH]c5ccccc45)C(=O)NC3=O)c3ccccc3n2)CC1 [sotrastaurin]
Procedure, shortened: as §1

[1] = compound: CNC(=O)C1=CC=CC=C1NC2=NC(=NC=C2Cl)NC3=C(C=C(C=C3)N4CCOCC4)OC
Procedure, shortened: as §1

defactinib = compound: CNC(=O)c1ccc(Nc2ncc(C(F)(F)F)c(NCc3nccnc3N(C)S(C)(=O)=O)n2)cc1 [defactinib]
Procedure, shortened: as §1

rucaparib = compound: CNCc1ccc(-c2[nH]c3cc(F)cc4c3c2CCNC4=O)cc1 [rucaparib]
Procedure, shortened: as §1

[2] = compound: CNc1nc(-c2ccc3c(N)n[nH]c3c2)cc(N2C[C@@H](C(=O)NC3CCCCC3)CC[C@H]2C)n1
Procedure, shortened: as §1

encorafenib = compound: COC(=O)N[C@@H](C)CNc1nccc(-c2cn(C(C)C)nc2-c2cc(Cl)cc(NS(C)(=O)=O)c2F)n1 [encorafenib]
Procedure, shortened: as §1

[3] = compound: COC(=O)[C@H](CCSC)NC(=O)C1=C(C=C(C=C1)NC[C@H](CS)N)C2=CC=CC=C2
Procedure, shortened: as §1

alvocidib = compound: CN1CC[C@H](c2c(O)cc(O)c3c(=O)cc(-c4ccccc4Cl)oc23)[C@H](O)C1 [alvocidib]
Procedure, shortened: as §1

Tubastatin A = compound: CN1CCc2c(c3ccccc3n2Cc2ccc(C(=O)NO)cc2)C1 [Tubastatin A]
Procedure, shortened: as §1

Measured: log2 fold change

STARD10 (UniProt Q9Y365)
inactive: saracatinib 0.086 | sotrastaurin -0.115 | [1] -0.012 | defactinib -0.118 | rucaparib -0.065 | [2] 0.099 | encorafenib -0.142 | [3] -0.114

SSX1 (UniProt Q16384)
inactive: alvocidib 0.107

STC2 (UniProt O76061)
inactive: [1] 0.049 | defactinib 0.252 | [3] 0.109

SPRED2 (UniProt Q7Z698)
inactive: alvocidib -0.073

SRD5A3 (UniProt Q9H8P0)
inactive: [1] -0.027 | rucaparib 0.032 | encorafenib 0.156

SREBF1 isoform 4 (UniProt P36956)
inactive: saracatinib 0.077 | [1] 0.033 | rucaparib -0.164 | [2] 0.045 | encorafenib 0.044

SS18 (UniProt Q15532)
inactive: saracatinib -0.127 | alvocidib -0.303 | Tubastatin A 0.034 | [1] 0.015 | defactinib -0.085 | rucaparib -0.056 | [2] -0.13 | encorafenib 0.013 | [3] 0.051

SPRED1 (UniProt Q7Z699)
inactive: alvocidib -0.22 | defactinib 0.054 | [3] -0.153

SSH2 (UniProt Q76I76)
inactive: sotrastaurin 0.031

Reprinted at random: 2 entries already listed, in no set order.
SS18 (UniProt Q15532)
inactive: saracatinib -0.127 | alvocidib -0.303 | Tubastatin A 0.034 | [1] 0.015 | defactinib -0.085 | rucaparib -0.056 | [2] -0.13 | encorafenib 0.013 | [3] 0.051

SRD5A3 (UniProt Q9H8P0)
inactive: [1] -0.027 | rucaparib 0.032 | encorafenib 0.156

(continued)

SPTAN1 isoform 3 (UniProt Q13813)
inactive: defactinib 0.08 | [3] 0.259

SSB (UniProt E7ERC4)
inactive: saracatinib -0.05 | defactinib -0.205 | [2] 0.018 | [3] -0.092

STK17B (UniProt O94768)
active: [1] -1.03

ST8SIA6 (UniProt P61647)
inactive: sotrastaurin 0.027 | defactinib 0.046 | [3] 0.221

SRCIN1 (UniProt Q9C0H9)
inactive: [1] -0.004 | defactinib -0.065 | [3] -0.057

STK16 (UniProt O75716)
inactive: [1] 0.209

STK24 (UniProt Q9Y6E0)
inactive: sotrastaurin 0.082 | alvocidib -0.02 | Tubastatin A -0.016 | [1] -0.007 | defactinib -0.028 | rucaparib -0.041 | [2] -0.032 | encorafenib 0.033 | [3] 0.031

SRC isoform 2 (UniProt P12931)
inactive: sotrastaurin -0.167 | Tubastatin A -0.108 | [1] -0.069 | defactinib -0.077 | rucaparib -0.343 | [2] 0.007 | encorafenib 0.082 | [3] 0.188

SPHK2 isoform 5 (UniProt Q9NRA0)
inactive: sotrastaurin -0.007

SPPL3 (UniProt Q8TCT6)
inactive: [1] 0.142

SREBF2 (UniProt Q12772)
inactive: sotrastaurin -0.017 | [1] -0.015 | defactinib 0.005 | rucaparib 0.022 | encorafenib -0.018 | [3] 0.024

ST3GAL4 isoform 4 (UniProt Q11206)
inactive: sotrastaurin 0.12 | alvocidib -0.09 | Tubastatin A -0.075 | [1] 0.004

ST3GAL1 (UniProt Q11201)
inactive: saracatinib 0.061 | alvocidib -0.344 | [2] 0.08

SPINT1 (UniProt O43278)
inactive: sotrastaurin 0.183 | [1] -0.038 | defactinib 0.064 | [3] 0.034

SPATS2 (UniProt Q86XZ4)
inactive: saracatinib 0.064 | alvocidib 0.328 | [1] -0.086 | defactinib 0.091 | rucaparib 0.033 | [2] 0.326 | encorafenib -0.07 | [3] 0.188

SRSF9 (UniProt Q13242)
inactive: saracatinib 0.022 | sotrastaurin -0.015 | [1] -0.145 | defactinib 0.276 | rucaparib 0.376 | [2] 0.097 | encorafenib 0.149 | [3] -0.024

SPIN4 (UniProt Q56A73)
inactive: [1] -0.199

SPRR1B (UniProt P22528)
inactive: rucaparib -0.106 | encorafenib 0.038

STIM2 isoform 2 (UniProt Q9P246)
inactive: Tubastatin A -0.11 | [1] 0.011 | defactinib -0.073 | rucaparib 0.234 | encorafenib -0.008 | [3] -0.137

SRRD (UniProt Q9UH36)
inactive: sotrastaurin 0.05 | Tubastatin A -0.171 | [1] 0.102 | rucaparib 0.037 | encorafenib -0.034

SPRR2B (UniProt P35325)
inactive: [1] 0.141 | defactinib 0.037 | rucaparib -0.034 | encorafenib 0.008 | [3] 0.196

SQOR (UniProt Q9Y6N5)
inactive: saracatinib 0.189 | sotrastaurin 0.18 | [1] 0.016 | defactinib -0.021 | [2] -0.082 | [3] 0.22

SPEN (UniProt Q96T58)
inactive: saracatinib 0.04 | alvocidib -0.063 | Tubastatin A -0.059 | [1] -0.037 | defactinib -0.007 | rucaparib 0.18 | [2] 0.033 | encorafenib -0.083 | [3] 0.052

SSBP2 (UniProt P81877)
inactive: alvocidib -0.165 | rucaparib 0 | encorafenib -0.051
